Results on one substance are retold here after publication PMC8165280.

These are yes or no findings as the source states them, for the method shown. Binding seen in cells or lysates may run through a third protein. Some binding calls cover weakened binding; strength is not graded here. Where a sequence is shown, tags or fusion partners need not be part of it.

The test has as its target T1, Flag-B7H3 (UniProt Q5ZPR3).
T1 sequence: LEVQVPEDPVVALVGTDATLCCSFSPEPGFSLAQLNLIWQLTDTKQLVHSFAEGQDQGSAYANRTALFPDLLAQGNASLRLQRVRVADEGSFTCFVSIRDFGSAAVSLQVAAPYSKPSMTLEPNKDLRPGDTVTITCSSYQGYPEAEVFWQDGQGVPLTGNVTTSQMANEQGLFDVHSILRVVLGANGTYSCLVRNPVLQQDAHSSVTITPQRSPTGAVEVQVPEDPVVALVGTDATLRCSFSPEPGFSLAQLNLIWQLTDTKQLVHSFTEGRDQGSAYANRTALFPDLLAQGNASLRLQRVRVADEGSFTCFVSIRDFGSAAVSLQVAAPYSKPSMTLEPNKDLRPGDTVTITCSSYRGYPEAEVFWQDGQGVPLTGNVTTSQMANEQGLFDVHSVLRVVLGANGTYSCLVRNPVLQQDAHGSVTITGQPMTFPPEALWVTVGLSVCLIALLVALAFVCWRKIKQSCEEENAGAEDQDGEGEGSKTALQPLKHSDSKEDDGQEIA
Put plainly: co-IP; Flag-B7H3 co-expressed with Myc-p62 in HEK293T cells, with or without CQ for 24 h; lysis in 0.3% NP-40 buffer (50 mM Tris-HCl pH 7.5, 150 mM NaCl); anti-Flag M2 affinity beads 3 h at 4°C; immunoblotting.

With Myc-p62 (from UniProt Q13501 1-440), the binding result is on record as “binds”.
